In patent US20110183942A1, “Methods and Compositions for Treating Alzheimer's Disease” (UNIVERSITY OF MEDICINE AND DENTISTRY OF NEW JERSEY, priority 2008, published 2011):
For at least one compound, name, drawing or mass did not settle the structure.

System: surface AMPA receptor (GluR2/3, GluR1) in cultured neurons
Test: Surface biotinylation assay of AMPA receptor subunits
Format: cell-based, mouse
Procedure: For surface biotinylation, drug-treated cortical neurons were cooled on ice, washed twice with ice-cold PBS++ (1× PBS, 1 mM CaCl2, 0.5 mM MgCl2) and then incubated with PBS++ containing 1 mg/ml Sulfo-NHS-SSBiotin (Pierce) for 30 min at 4° C. Unreacted biotin was quenched by washing cells three times with PBS++ containing 100 mM Glycine (pH 7.4) (briefly once and for 5 min twice). Cultures were harvested in RIPA buffer and sonicated. Homogenates were centrifuged at […] for 20 min at 4° C. Fifteen % of supernatant was saved as the total protein. […] Precipitates were washed with RIPA buffer three times (5 min each time). All procedures were done at 4° C.

Structure (SMILES): CN1CCc2cc3c(cc2[C@H]1[C@@H]1OC(=O)c2c1ccc1c2OCO1)OCO3 [Bic, bicuculline]
- surface expression of GluR1: equally decreased
